# Data published in publication doi:10.1101/2020.06.13.149989.
# Results are given in words; binding and its absence hold for the method and conditions named. In cells and extracts the contact can be indirect. Some results given as binding are weak or reduced against the parent protein; the word gives no strength.
# Target: p9 protein on Sepharose beads (UniProt P61024)
# Test: pull-down
substance,measurement,value
CDK2 (from UniProt P23437 1-297),binding,binds
